For 1 substance, binding results are on record in article PMC9792466.

By UniProt entry, the sequences of proteins in these tests, tags left out. Where a name states a change or a piece, a line headed by the entry shows the natural chain unless it says otherwise.
UniProt P21274: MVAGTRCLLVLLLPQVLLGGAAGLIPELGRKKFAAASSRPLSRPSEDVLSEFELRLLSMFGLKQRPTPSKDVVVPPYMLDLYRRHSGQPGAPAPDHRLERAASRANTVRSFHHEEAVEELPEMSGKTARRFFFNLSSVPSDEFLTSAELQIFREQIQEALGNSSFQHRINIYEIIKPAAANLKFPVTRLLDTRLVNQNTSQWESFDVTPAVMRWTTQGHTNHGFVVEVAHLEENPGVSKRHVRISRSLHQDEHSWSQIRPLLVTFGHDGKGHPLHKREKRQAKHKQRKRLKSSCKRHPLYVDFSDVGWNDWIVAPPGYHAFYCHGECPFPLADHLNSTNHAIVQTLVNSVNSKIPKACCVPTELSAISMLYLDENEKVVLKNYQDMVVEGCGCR

No constants are given. Whether binding was seen depends on the method and setting. Binding seen in cells or lysates may run through a third protein. Binding calls can cover weak binding; strength is not graded here.

The test deals with T1, WW domain-containing oxidoreductase (WWOX) (mouse (endogenous in 266-6)) (UniProt Q91WL8).
T1 sequence: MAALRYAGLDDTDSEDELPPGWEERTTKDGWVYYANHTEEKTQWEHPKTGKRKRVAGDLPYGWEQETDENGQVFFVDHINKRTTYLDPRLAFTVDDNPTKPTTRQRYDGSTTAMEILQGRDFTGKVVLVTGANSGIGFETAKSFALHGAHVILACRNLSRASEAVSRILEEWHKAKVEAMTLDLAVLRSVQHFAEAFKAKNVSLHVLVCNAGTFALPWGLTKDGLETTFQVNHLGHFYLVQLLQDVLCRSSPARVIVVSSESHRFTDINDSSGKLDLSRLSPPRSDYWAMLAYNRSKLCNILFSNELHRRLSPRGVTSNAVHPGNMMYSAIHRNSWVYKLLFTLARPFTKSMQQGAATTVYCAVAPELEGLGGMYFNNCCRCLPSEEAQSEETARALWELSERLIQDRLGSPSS
Nature of the test: co-IP; endogenous WWOX immunoprecipitated with monoclonal mouse anti-WWOX cocktail antibodies and protein A/G plus agarose beads, overnight at 4 °C, from whole-cell lysates of 266-6 KrasG12D cells not activated or activated with doxycycline for 24 h; lysis buffer 50 mM Tris pH 7.5, 150 mM NaCl, 10% glycerol, 1% NP-40; IgG as control; immunoblot of the precipitate.

On to BMP2 (from UniProt P21274), for which the binding entry was “binds”.
